# Source: PubChem BioAssay AID588499 (NMMLSC, 2011)
# In all, about 360,000 compounds went through this assay and about 610 (0.17%) were called active. Inconclusive results, whose numbers are uncertain, are shown with a selection of clear calls. No stated cut-off is given here; in the data, active means inhibition above about 30%; inconclusive means no clear call, values can overlap the other calls; inactive means below that.
# Tested on: Botulinum neurotoxin type A light chain protease (Clostridium botulinum A str. ATCC 3502)
# Assay: blockers of BoNT/A LC substrate cleavage – biochemical, flow cytometry, MLPCN library, primary screen (AID 588499); further: plate controls were buffer without enzyme for full effect and enzyme alone for no effect
# Settings: multiplex microsphere protease substrate cleavage, at 10 µM, stronger effect = higher value
row,Structure (SMILES),inhibition
1,CC1Cc2ccccc2N1C(=O)COC(=O)c1cccnc1Cl (configuration not stated),inconclusive: 1%
2,COc1ccc(Nc2ncnc3sc(-c4ccccc4)cc23)cc1,inconclusive: 2.5%
3,O=C1c2ccccc2S(=O)(=O)N1CC(O)Cn1ccc2ccccc21 (configuration not stated),active: 156%
4,CCN1CCc2c(sc(NC(=O)c3ccc(S(=O)(=O)N(C)c4ccccc4)cc3)c2C(=O)NC)C1,inconclusive: 31.3%
5,CC1=C([N+](=O)[O-])C(c2ccccc2C(F)(F)F)NC(=O)N1C (configuration not stated),inconclusive: 22.9%
6,COc1cc(C2C(C#N)=C(N)Oc3c2ccc2ccccc32)ccc1OCC(=O)Nc1ccccc1C (configuration not stated),inconclusive: 0.1%
7,Cc1cccc(-n2c(SCC(=O)NCc3ccco3)nc3ccccc3c2=O)c1,inconclusive: -4.8%
8,O=C(NCCc1ccccc1)c1ccc(-n2cnnn2)cc1,inconclusive: -3.4%
9,Cc1ccc(NC(=S)NNC(=O)Cn2nc([N+](=O)[O-])cc2C)cc1,inactive: 0.2%
10,Cc1cc(F)ccc1NC(=O)C1CSC2(C)CCC(=O)N12 (configuration not stated),inconclusive: -2.5%
11,CCc1cc(OCCCSc2nc(C)cc(=O)[nH]2)ccc1Cl,inconclusive: -2.5%
12,CC(=O)c1sc2nc(-c3cccs3)ccc2c1N,active: 33.7%
13,OCCNCc1cccc(-c2ccccc2)c1O,inactive: -0.4%
14,CC(=O)Nc1ccc(S(=O)(=O)Nc2cccc(-n3c(C)nc4ccccc4c3=O)c2)cc1,inactive: -3.2%
15,OCCN(Cc1ccccc1)Cc1ccccc1Cl,inconclusive: -1.9%
16,CCCC1CCC(c2nc(-c3cccnc3)no2)CC1 (configuration not stated),inconclusive: 0.9%
17,CC(CC(=O)Nc1ccc(Cl)c([N+](=O)[O-])c1)c1ccccc1 (configuration not stated),inactive: -0.7%
18,O=C(CSc1nnc(-c2cccnc2)n1Cc1ccco1)c1ccc2ccccc2c1,inconclusive: -2%
19,CC[C@]12c3[nH]c4cc(-c5ccco5)ccc4c3CCN1C(=O)[C@@H](CC(=O)NCCCN(C)C)C[C@@H]2C(=O)N1CCN(C(=O)c2ccco2)CC1,inactive: -0.4%
20,Cc1sc2nc(CSCC(=O)Nc3c(F)cccc3F)[nH]c(=O)c2c1C,inconclusive: -158%
21,Cn1c(=O)[nH]c(=O)c2c1nc(N1CCN(CCO)CC1)n2Cc1ccccc1Cl,inconclusive: 1.5%
22,COc1cc(C(=O)Nc2nc3ccc(S(C)(=O)=O)cc3s2)cc(OC)c1C,inactive: 3.6%
23,O=c1c2c3c(sc2n(CCN2CCCCC2)c(=O)n1Cc1ccco1)CCCCC3,inconclusive: -11.1%

row,Structure (SMILES),inhibition
1,O=C(Cc1ccccc1)N/N=C/c1ccc(Cl)cc1Cl,inconclusive: -0.4%
2,O=C(NCCc1ccccc1)C1CCCN(C(=O)NC2CCCCC2)C1 (configuration not stated),inconclusive: 0.1%
3,Cn1c(SCc2c(Cl)cccc2Cl)nnc1-c1cccs1,inconclusive: 4.3%
4,CN(C)CCNC(=O)c1cccc2nc3c(ccc4ccccc43)nc12,active: 44.4%
5,Cc1ccc(S(=O)(=O)c2nc(NN(C)C)sc2Cl)cc1,inactive: -0.2%
6,c1ccc(-c2nc(NCC3CCCO3)c3oc4ccccc4c3n2)cc1 (configuration not stated),inconclusive: -1.7%
7,Cc1ccc(NC(=O)N/C=C/c2ccco2)cc1C,inconclusive: -1.7%
8,CCn1c(P(C)(=O)O)nc2cc(NC(=O)c3ccccc3Cl)ccc21,inactive: -0.7%
9,Cc1cccc(NC(=O)C2CCN(S(=O)(=O)c3cccs3)CC2)n1,inconclusive: -3.7%
10,COc1ccc(/C=C/C(=O)c2cc(F)ccc2OC(=O)c2ccccc2C)cc1OC,inactive: 10.7%
11,CN1CCN(/N=C/c2c[nH]c3ccccc23)CC1,inconclusive: 1.5%
12,Fc1ccccc1/C=N/n1c(-c2cccnc2)n[nH]c1=S,inconclusive: 3.2%
13,CCN1CNC(=S)N(c2cc(C)ccc2C)C1,inconclusive: -4.5%
14,O=C(Nc1ccc(-c2nnc(-c3ccccc3)o2)cc1)C1CCCO1 (configuration not stated),inconclusive: -1.4%
15,CC(C)C(c1nnnn1C(C)(C)C)N1CCC(Cc2ccccc2)CC1 (configuration not stated),inconclusive: 4.8%
16,COCC(=O)Nc1cc(C)cn(Cc2ccc(F)cc2)c1=O,inconclusive: 1.6%
17,Cn1cc(Br)c(C(=O)NC2C3CC4CC(C3)CC2C4)n1 (configuration not stated),inconclusive: 0.4%
18,Nn1c(SCC(=O)Nc2ccc(F)cc2)nnc1-c1cccnc1,inconclusive: 15.3%
19,O=C(CCNC(=O)c1ccc(Cl)cc1)NCc1cccc(C(F)(F)F)c1,inconclusive: -31.2%
20,CCCC1=C(C(=O)OCC)C2(C(=O)Nc3ccc(C)cc32)C(C#N)=C(N)O1 (configuration not stated),inconclusive: 2.2%
21,O=C(NCCc1ccc(F)cc1)c1cccc2c1C(=O)c1ccc(N3CCC(Cc4ccccc4)CC3)cc1S2(=O)=O,inactive: 22%
22,C/C(=N\O)c1cccc(Br)c1,inconclusive: 5.4%
23,COc1ccc(NC(=O)COc2ccc(N(C)S(=O)(=O)c3ccc(Cl)cc3)cc2)cc1OC,inconclusive: -11.4%

# Reprinted at random: two entries already listed, in no set order.
row,Structure (SMILES),inhibition
11,CN1CCN(/N=C/c2c[nH]c3ccccc23)CC1,inconclusive: 1.5%
10,COc1ccc(/C=C/C(=O)c2cc(F)ccc2OC(=O)c2ccccc2C)cc1OC,inactive: 10.7%

# Next entries.

row,Structure (SMILES),inhibition
1,N#Cc1cnc(SCC(=O)Nc2ccccc2C(F)(F)F)nc1N,inconclusive: -4.3%
2,CCCn1c(C)cc(C(=O)COc2ncnc3sccc23)c1C,inconclusive: 0.2%
3,O=c1ncn(-c2cccc(F)c2)c2ncccc12,inconclusive: 3.2%
4,C=CCSc1nc(C)cc(/C=C\c2ccccc2)c1C#N,inconclusive: -5%
5,O=C(OCc1c(Cl)cccc1Cl)c1cccnc1Cl,inconclusive: -3%
6,O=C(Nc1cccc(-c2nc3ncccc3o2)c1)c1sc2cc(Cl)ccc2c1Cl,inconclusive: 1.6%
7,Cc1ccc(C)c(C(O)c2ncc(-c3cccc(C(F)(F)F)c3)[nH]2)c1 (configuration not stated),inactive: -0.6%
8,COc1cccc(NC(=O)CN2CCC(C)CC2)c1,inconclusive: -0.7%
9,S=C(NCc1ccccc1)N1CCN(C(=S)NCc2ccccc2)CC1,inactive: 0.4%
10,C=CCOc1nc(-c2ccccc2Cl)nc2ccccc12,inconclusive: 8%
11,O=C1C2C3c4ccccc4C(c4ccccc43)[C@@H]2C(=O)N1c1ccccn1 (some centres not stated),inconclusive: -44.5%
12,O=C(c1ccccc1)n1ccn(-c2ccccc2)c1=S,inconclusive: 2.3%
13,CC(C)N(C(=O)Cn1cnc2c(cnn2-c2ccccc2Cl)c1=O)C(C)C,inconclusive: 3.3%
14,COCc1cc(CN2CCN(C)CC2)c(O)c2ncccc12,inconclusive: 0.5%
15,O=C(CCCO)NNc1c2ccccc2nc2ccccc12,inconclusive: 8.3%
16,CCNC1CCS(=O)(=O)C1 (configuration not stated),inconclusive: 11.5%
17,COc1ccc([C@H]2N[C@]3(CCCN(Cc4ccc(Cl)cc4)C3=O)[C@H]3C(=O)N(Cc4ccccc4)C(=O)[C@@H]23)cc1,inactive: -0.3%
18,CCOc1ccc(NS(=O)(=O)c2cc(C(=O)N3CCCC3)ccc2Cl)cc1,inconclusive: 0.3%
19,Cc1ccc(-c2n[nH]c(=O)c3ccccc23)cc1S(=O)(=O)Nc1ccc(F)cc1,inactive: -0.1%
20,O=C(Oc1ccccc1C(=O)N1CCOCC1)c1ccc(Br)cc1,inconclusive: 1.2%
21,Oc1c(Br)cc(/C=N/n2c(-c3ccccc3)n[nH]c2=S)c(O)c1Br,inactive: -1.9%
22,CCCN(CCC)CCSc1nc(O)c(C(C)C)c(=O)[nH]1,inconclusive: 11.9%
23,O=C(CCNc1n[nH]c(=O)[nH]c1=O)N1CCOCC1,inconclusive: -0.1%

row,Structure (SMILES),inhibition
1,OCCN1CCN(c2cc(C(F)(F)F)nc3ccccc23)CC1,inconclusive: -15%
2,COc1ccc(-c2ccc3c(c2)C2CC3CCN2C(=O)C(C)(C)C)cc1 (configuration not stated),inactive: 0.1%
3,O=C(CSC1CN(C(c2ccccc2)c2ccccc2)C1)N/N=C/c1ccccc1,inconclusive: 8.8%
4,O=C(CCC(=O)OCc1ccc([N+](=O)[O-])cc1)Nc1ccc(F)cc1,inactive: -0.4%
5,Nc1nnc(SCc2ccccc2)n1-c1ccccc1,inconclusive: 6.7%
6,O=C(c1cccc(C(F)(F)F)c1)N1CCCC1,inconclusive: -2.1%
7,CCc1noc(C)c1C(=O)N(C)CC(=O)Nc1ccc(F)c(F)c1F,inactive: -3.2%
8,COc1ccc2nc(/C=N/NC(=O)[C@@H]3CCCN3C(=O)OC(C)(C)C)ccc2c1,inactive: 1.1%
9,CCCCc1[nH]c(=O)c(C#N)c2c1CCCC2,inactive: 0%
10,C/C(=N\NS(=O)(=O)c1ccc(Cl)c([N+](=O)[O-])c1)c1cc2ccccc2o1,inconclusive: -9.7%
11,C=CCc1ccc(OCCCNCc2ccccc2)c(OC)c1,inconclusive: -2%
12,COc1cccc(NC(=O)N(C)C[C@H]2Oc3cc(Br)ccc3S(=O)(=O)N([C@H](C)CO)C[C@H]2C)c1,inactive: 0.2%
13,CCCCCCCn1c(=N)n(CC(O)c2ccco2)c2ccccc21 (configuration not stated),inconclusive: 2.8%
14,CC(C)(C)c1cc(C(=O)O)n(Cc2ccc(Cl)cc2Cl)n1,inconclusive: -5.7%
15,Cn1c(=O)c2nc(-c3ccccc3)oc2c2ccccc21,inactive: 1.9%
16,COc1ccc(S(=O)(=O)N2CCC(C(=O)N(C)Cc3ccc(C)o3)CC2)cc1OC,inactive: 1.5%
17,CCCCn1c(=NC(=O)c2ccc3c(c2)OCO3)c(C#N)cc2c(=O)n3cccc(C)c3nc21,active: 62.7%
18,O=C1Nc2ccc(Br)cc2C12OCCO2,inconclusive: 3.5%
19,NC(=O)c1ccc(NC(=O)CSc2nnc(-c3ccc4c(c3)OCO4)o2)cc1,inactive: -0.5%
20,Cc1cc(C)c(OCCCCN(C)Cc2ccccc2)c(C)c1,inconclusive: 4.5%
21,CCCCC#Cc1ccc(C(=O)NNC(=O)Nc2cc(Cl)cc(Cl)c2)o1,inconclusive: 13.6%
22,COC(=O)c1noc(-c2ccc(OC)cc2)n1,inactive: 1%
23,Cc1cc(C)nc(N2CCCC(C(=O)NC(C)CCc3ccco3)C2)n1 (configuration not stated),inconclusive: -1%

# Rewritten bar-delimited: part of the list above
row | Structure (SMILES) | inhibition
4 | O=C(CCC(=O)OCc1ccc([N+](=O)[O-])cc1)Nc1ccc(F)cc1 | inactive: -0.4%
8 | COc1ccc2nc(/C=N/NC(=O)[C@@H]3CCCN3C(=O)OC(C)(C)C)ccc2c1 | inactive: 1.1%
15 | Cn1c(=O)c2nc(-c3ccccc3)oc2c2ccccc21 | inactive: 1.9%
